Laboratory results taken from the supplement of paper PMC7661543.
± gives the standard deviation of the averaged measurements. Differences between knockout arms are mostly noise.

Test system: SKBR3
Assay: relative cell number vs DMSO control (72 h) (% of DMSO); higher = less growth inhibition (more cells)
Experimental: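 QMAP-Seq: a pool of 5 breast cancer cell lines (ZR-75-1, SKBR3, HCC-38, MDA-MB-231, BT-20), each carrying 12 doxycycline-inducible Cas9 sgRNA perturbations (11 knockouts plus non-targeting sgNT), was treated with compounds for 72 h at four 10-fold doses (10 nM-10 uM or 1 nM-1 uM range). Barcodes were amplified and sequenced, and cell number was interpolated from 293T spike-in standard curves. The result is expressed as % of the median of DMSO wells. Two biological replicates.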

C[C@]12CC[C@H](O)CC1=CC[C@@H]1[C@@H]2CC[C@]2(C)C(c3cccnc3)=CC[C@@H]12 [Abiraterone]
Conditions | relative cell number
sgRNA knockout: sgATF3, 1 nM | 131 ± 29
sgRNA knockout: sgATF3, 10 nM | 111 ± 3.8
sgRNA knockout: sgATF3, 100 nM | 139 ± 18
sgRNA knockout: sgATF3, 1000 nM | 84 ± 12
sgRNA knockout: sgATF4, 1 nM | 104 ± 8.8
sgRNA knockout: sgATF4, 10 nM | 106 ± 22
sgRNA knockout: sgATF4, 100 nM | 99.9 ± 9
sgRNA knockout: sgATF4, 1000 nM | 94.3 ± 15
sgRNA knockout: sgATF6, 1 nM | 92.3 ± 20
sgRNA knockout: sgATF6, 10 nM | 99.2 ± 10
sgRNA knockout: sgATF6, 100 nM | 105 ± 4.6
sgRNA knockout: sgATF6, 1000 nM | 105 ± 3.7
sgRNA knockout: sgATG7, 1 nM | 102 ± 11
sgRNA knockout: sgATG7, 10 nM | 125 ± 19
sgRNA knockout: sgATG7, 100 nM | 104 ± 8.7
sgRNA knockout: sgATG7, 1000 nM | 117 ± 17
sgRNA knockout: sgERN1, 1 nM | 108 ± 12
sgRNA knockout: sgERN1, 10 nM | 122 ± 37
sgRNA knockout: sgERN1, 100 nM | 123 ± 16
sgRNA knockout: sgERN1, 1000 nM | 112 ± 8.4
sgRNA knockout: sgHSF1, 1 nM | 94.1 ± 2.1
sgRNA knockout: sgHSF1, 10 nM | 103 ± 11
sgRNA knockout: sgHSF1, 100 nM | 92.8 ± 18
sgRNA knockout: sgHSF1, 1000 nM | 101 ± 15
sgRNA knockout: sgHSF2, 1 nM | 100 ± 2.4
sgRNA knockout: sgHSF2, 10 nM | 118 ± 18
sgRNA knockout: sgHSF2, 100 nM | 97.7 ± 6.5
sgRNA knockout: sgHSF2, 1000 nM | 93.7 ± 29
sgRNA knockout: sgKEAP1, 1 nM | 111 ± 22
sgRNA knockout: sgKEAP1, 10 nM | 111 ± 2.6
sgRNA knockout: sgKEAP1, 100 nM | 104 ± 1.6
sgRNA knockout: sgKEAP1, 1000 nM | 107 ± 1.6
sgRNA knockout: sgNFE2L2, 1 nM | 111 ± 22
sgRNA knockout: sgNFE2L2, 10 nM | 117 ± 9.4
sgRNA knockout: sgNFE2L2, 100 nM | 105 ± 5.4
sgRNA knockout: sgNFE2L2, 1000 nM | 103 ± 16
sgRNA knockout: sgSLC35F2, 1 nM | 109 ± 2.8
sgRNA knockout: sgSLC35F2, 10 nM | 90.8 ± 2.5
sgRNA knockout: sgSLC35F2, 100 nM | 102 ± 7.7
sgRNA knockout: sgSLC35F2, 1000 nM | 85 ± 20
sgRNA knockout: sgXBP1, 1 nM | 124 ± 44
sgRNA knockout: sgXBP1, 10 nM | 118 ± 9.4
sgRNA knockout: sgXBP1, 100 nM | 128 ± 22
sgRNA knockout: sgXBP1, 1000 nM | 95.4 ± 5.5

CC(C)(C#N)c1cc(Cn2cncn2)cc(C(C)(C)C#N)c1 [Anastrozole]
Conditions | relative cell number
sgRNA knockout: sgATF3, 1 nM | 131 ± 18
sgRNA knockout: sgATF3, 10 nM | 121 ± 20
sgRNA knockout: sgATF3, 100 nM | 137 ± 12
sgRNA knockout: sgATF3, 1000 nM | 119 ± 4.8
sgRNA knockout: sgATF4, 1 nM | 112 ± 7.3
sgRNA knockout: sgATF4, 10 nM | 101 ± 18
sgRNA knockout: sgATF4, 100 nM | 102 ± 7.9
sgRNA knockout: sgATF4, 1000 nM | 93.6 ± 15
sgRNA knockout: sgATF6, 1 nM | 107 ± 2.3
sgRNA knockout: sgATF6, 10 nM | 102 ± 14
sgRNA knockout: sgATF6, 100 nM | 108 ± 15
sgRNA knockout: sgATF6, 1000 nM | 102 ± 18
sgRNA knockout: sgATG7, 1 nM | 120 ± 16
sgRNA knockout: sgATG7, 10 nM | 85.3 ± 24
sgRNA knockout: sgATG7, 100 nM | 120 ± 12
sgRNA knockout: sgATG7, 1000 nM | 104 ± 3.8
sgRNA knockout: sgERN1, 1 nM | 99.3 ± 3.8
sgRNA knockout: sgERN1, 10 nM | 110 ± 4
sgRNA knockout: sgERN1, 100 nM | 122 ± 12
sgRNA knockout: sgERN1, 1000 nM | 89.3 ± 8.9
sgRNA knockout: sgHSF1, 1 nM | 117 ± 28
sgRNA knockout: sgHSF1, 10 nM | 119 ± 7
sgRNA knockout: sgHSF1, 100 nM | 111.3 ± 0.33
sgRNA knockout: sgHSF1, 1000 nM | 105 ± 2
sgRNA knockout: sgHSF2, 1 nM | 102 ± 15
sgRNA knockout: sgHSF2, 10 nM | 92.4 ± 11
sgRNA knockout: sgHSF2, 100 nM | 102 ± 4.9
sgRNA knockout: sgHSF2, 1000 nM | 98.4 ± 4.7
sgRNA knockout: sgKEAP1, 1 nM | 121 ± 22
sgRNA knockout: sgKEAP1, 10 nM | 80.6 ± 10
sgRNA knockout: sgKEAP1, 100 nM | 102 ± 9.2
sgRNA knockout: sgKEAP1, 1000 nM | 88.9 ± 22
sgRNA knockout: sgNFE2L2, 1 nM | 109 ± 11
sgRNA knockout: sgNFE2L2, 10 nM | 95.2 ± 24
sgRNA knockout: sgNFE2L2, 100 nM | 103 ± 2
sgRNA knockout: sgNFE2L2, 1000 nM | 90.5 ± 12
sgRNA knockout: sgSLC35F2, 1 nM | 108 ± 9.4
sgRNA knockout: sgSLC35F2, 10 nM | 104 ± 7.2
sgRNA knockout: sgSLC35F2, 100 nM | 107 ± 24
sgRNA knockout: sgSLC35F2, 1000 nM | 76.4 ± 17
sgRNA knockout: sgXBP1, 1 nM | 149 ± 12
sgRNA knockout: sgXBP1, 10 nM | 110 ± 34
sgRNA knockout: sgXBP1, 100 nM | 127 ± 9.1
sgRNA knockout: sgXBP1, 1000 nM | 93.4 ± 36

C[C@H]1CCC/C=C/[C@@H]2C[C@H](O)C[C@H]2[C@H](O)/C=C/C(=O)O1 [BrefeldinA]
Conditions | relative cell number
sgRNA knockout: sgATF3, 10 nM | 104 ± 33
sgRNA knockout: sgATF3, 100 nM | 18.1 ± 6.1
sgRNA knockout: sgATF3, 1000 nM | 8.8 ± 2.2
sgRNA knockout: sgATF3, 10000 nM | 8.7 ± 1.6
sgRNA knockout: sgATF4, 10 nM | 97 ± 7.2
sgRNA knockout: sgATF4, 100 nM | 9.44 ± 0.22
sgRNA knockout: sgATF4, 1000 nM | 7.97 ± 2.5
sgRNA knockout: sgATF4, 10000 nM | 11.9 ± 2.2
sgRNA knockout: sgATF6, 10 nM | 92.4 ± 1.6
sgRNA knockout: sgATF6, 100 nM | 15.4 ± 4.2
sgRNA knockout: sgATF6, 1000 nM | 10 ± 5.4
sgRNA knockout: sgATF6, 10000 nM | 8.34 ± 3.6
sgRNA knockout: sgATG7, 10 nM | 91.3 ± 17
sgRNA knockout: sgATG7, 100 nM | 20.1 ± 3.6
sgRNA knockout: sgATG7, 1000 nM | 8.35 ± 1.5
sgRNA knockout: sgATG7, 10000 nM | 10.2 ± 4.1
sgRNA knockout: sgERN1, 10 nM | 92.3 ± 44
sgRNA knockout: sgERN1, 100 nM | 14.58 ± 0.12
sgRNA knockout: sgERN1, 1000 nM | 6.83 ± 5.4
sgRNA knockout: sgERN1, 10000 nM | 8.24 ± 5.7
sgRNA knockout: sgHSF1, 10 nM | 83.5 ± 2.6
sgRNA knockout: sgHSF1, 100 nM | 13.4 ± 1.7
sgRNA knockout: sgHSF1, 1000 nM | 9 ± 1.5
sgRNA knockout: sgHSF1, 10000 nM | 10.2 ± 1.9
sgRNA knockout: sgHSF2, 10 nM | 84.5 ± 21
sgRNA knockout: sgHSF2, 100 nM | 14.5 ± 4.1
sgRNA knockout: sgHSF2, 1000 nM | 10.7 ± 2.3
sgRNA knockout: sgHSF2, 10000 nM | 12.1 ± 5.5
sgRNA knockout: sgKEAP1, 10 nM | 85.1 ± 26
sgRNA knockout: sgKEAP1, 100 nM | 10.4 ± 1.3
sgRNA knockout: sgKEAP1, 1000 nM | 8.59 ± 2.1
sgRNA knockout: sgKEAP1, 10000 nM | 7.27 ± 0.32
sgRNA knockout: sgNFE2L2, 10 nM | 87.6 ± 4.6
sgRNA knockout: sgNFE2L2, 100 nM | 13.3 ± 6.8
sgRNA knockout: sgNFE2L2, 1000 nM | 10.9 ± 5.7
sgRNA knockout: sgNFE2L2, 10000 nM | 8.44 ± 0.66
sgRNA knockout: sgSLC35F2, 10 nM | 74.5 ± 15
sgRNA knockout: sgSLC35F2, 100 nM | 16.5 ± 4.5
sgRNA knockout: sgSLC35F2, 1000 nM | 5.19 ± 1.2
sgRNA knockout: sgSLC35F2, 10000 nM | 11.2 ± 0.81
sgRNA knockout: sgXBP1, 10 nM | 76.7 ± 12
sgRNA knockout: sgXBP1, 100 nM | 16.3 ± 3.8
sgRNA knockout: sgXBP1, 1000 nM | 8.54 ± 4
sgRNA knockout: sgXBP1, 10000 nM | 10.9 ± 5.1
